In publication PMC11406306:
These are yes or no findings as the source states them, for the method shown. For some assays here: Binding seen in cells or lysates may run through a third protein. Some binding calls cover weakened binding; strength is not graded here. Tags and fused reporters may be left off the sequences shown.

B1: AD-STM (SHOOT … fused to the GAL4 activation domain) (protein, UniProt Q38874 1-382)
chain: MESGSNSTSCPMAFAGDNSDGPMCPMMMMMPPIMTSHQHHGHDHQHQQQEHDGYAYQSHHQQSSSLFLQSLAPPQGTKNKVASSSSPSSCAPAYSLMEIHHNEIVAGGINPCSSSSSSASVKAKIMAHPHYHRLLAAYVNCQKVGAPPEVVARLEEACSSAAAAAASMGPTGCLGEDPGLDQFMEAYCEMLVKYEQELSKPFKEAMVFLQRVECQFKSLSLSSPSSFSGYGETAIDRNNNGSSEEEVDMNNEFVDPQAEDRELKGQLLRKYSGYLGSLKQEFMKKRKKGKLPKEARQQLLDWWSRHYKWPYPSEQQKLALAESTGLDQKQINNWFINQRKRHWKPSEDMQFVVMDATHPHHYFMDNVLGNPFPMDHISSTML
B2: SnRK1α1-HA (enzyme, UniProt Q38997 1-512)
chain: MDGSGTGSRSGVESILPNYKLGRTLGIGSFGRVKIAEHALTGHKVAIKILNRRKIKNMEMEEKVRREIKILRLFMHPHIIRLYEVIETPTDIYLVMEYVNSGELFDYIVEKGRLQEDEARNFFQQIISGVEYCHRNMVVHRDLKPENLLLDSKCNVKIADFGLSNIMRDGHFLKTSCGSPNYAAPEVISGKLYAGPEVDVWSCGVILYALLCGTLPFDDENIPNLFKKIKGGIYTLPSHLSPGARDLIPRMLVVDPMKRVTIPEIRQHPWFQAHLPRYLAVPPPDTVQQAKKIDEEILQEVINMGFDRNHLIESLRNRTQNDGTVTYYLILDNRFRASSGYLGAEFQETMEGTPRMHPAESVASPVSHRLPGLMEYQGVGLRSQYPVERKWALGLQSRAHPREIMTEVLKALQDLNVCWKKIGHYNMKCRWVPNSSADGMLSNSMHDNNYFGDESSIIENEAAVKSPNVVKFEIQLYKTRDDKYLLDLQRVQGPQFLFLDLCAAFLAQLRVL

Experiments:
[1] = biological target: T1, BD-SnRK1α1 (α1-subunit of SUCROSE NON-…1-RELATED KINASE 1 fused to the GAL4 DNA binding domain) (Arabidopsis thaliana) (UniProt Q38997); assay: two-hybrid; GAL4 system; AD-STM coexpressed with BD-SnRK1α1 in yeast; growth on medium lacking Leu, Trp and His (-L-W-H) compared with -L-W; dilutions 10^-1, 10^-2, 10^-3; empty-vector controls; performed three times
T1 sequence: B2 chain

[2] = biological target: T2, STM-GFP (Arabidopsis thaliana) (UniProt Q38874); assay: co-IP; Arabidopsis Col-0 mesophyll cell protoplasts coexpressing SnRK1α1-HA with STM-GFP or GFP alone; GFP-tagged proteins immunoprecipitated, SnRK1α1 detected by immunoblot with an HA antibody; performed three times
T2 sequence: B1 chain

Binder | binding [1] | binding [2]
B1 | binds | –
B2 | – | binds
